According to PubChem BioAssay AID1487 (National Center for Advancing Translational Sciences (NCATS), 2009):
Hit rate of the full screen: of about 200,000 compounds, about 25 (0.01%) were called active. Inconclusive results, whose numbers are uncertain, are shown with a selection of clear calls. The call rests on the fitted dose curve; in most records, active means well fitted inhibition curve with a large enough effect in the signal ratio, with a control signal flat (not every such curve was filed as active); inconclusive means small, poorly fitted or top-dose-only effect, or effect the other way, or a change in a side signal; inactive means flat fitted curve, though single readings scatter; the % refers to the signal ratio. Potencies of inconclusive entries are doubtful fits and often do not repeat.

assay: qHTS Assay for Modulators of Lamin A Splicing; conditions: HeLa LMNA splicing GFP/RFP minigene ratio, 48 h; ratio change, negative = inhibition: at 46.1 µM (top of the series) unless noted
Outline: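 Read-out is the ratio of GFP to DsRed2 object intensity, acquired by 488 nm laser-scanning cytometry on HeLa lamin A-EGFP minigene reporter cells. Compound incubation 48 hrs at 37 °C in Opti-MEM with 2% FBS; DMSO 0.5% final.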
On the % scale 0 is the no-effect control and ±100 the full control effect; potency means the concentration at half of the fitted maximal effect.

SMILES	ratio change, negative = inhibition	Potency
CCCCN(C)CCNC(=O)c1c2c(nc3ccccc13)C(=O)N(C1CCCCC1)C2	inconclusive: -14% [at 46 µM]	–
Cc1cccc(C)c1NC(=O)N1C2CCC1CC(O)(c1cccnc1)C2 (stereo not given)	inconclusive: 2.98% [at 46 µM]	–
CCC1CCCCN1Cc1ccc(CNS(=O)(=O)c2ccc3c(c2)oc(=O)n3C)o1 (stereo not given)	inactive: 7.26%	–
CC(C)(C)OC(=O)N1CCC(c2c(C(=O)NCCN3CCc4ccccc4C3)cnn2-c2ccc(F)cc2F)CC1	inconclusive: -16.8% [at 46 µM]	–
Cc1noc(C)c1COC(=O)Cc1ccc(Cl)cc1	inconclusive: 21.2%	–
CCC(=O)N1CCc2cc(Br)cc(S(=O)(=O)CCC(=O)NCCc3cccc(C)c3)c21	inconclusive: 7.68% [at 46 µM]	–
Cc1ccc(-c2cc(C(=O)NCc3ccco3)c3ccccc3n2)o1	inactive: 5.78%	–
CCn1ccnc1[C@@H]1C[C@H]2CN(c3ccccc3OC)C(=O)[C@]23CCCN13	inactive: 20.2% [at 46 µM]	–
CN1CCCN(S(=O)(=O)c2ccc(Cl)c(Cl)c2)CC1	inconclusive: -10.9% [at 46 µM]	–
Cc1cc(NC(=O)CO/N=C/c2ccc3c(c2)OCO3)ccc1Br	inconclusive: 18.4% [at 46 µM]	–
Cc1cc(=O)[nH]c(SCC(=O)N(CCC#N)c2ccccc2)c1C#N	inconclusive: 2.31% [at 46 µM]	–
CCOC(=O)Cc1csc(SCC(=O)NC2CCCC(C)C2C)n1 (stereo not given)	inactive: -5.91%	–
Cc1cccc(-n2c(O)c(C=Nc3cc(O)ccc3C)c3ccccc3c2=O)n1	inconclusive: 48% [at 46 µM]	–
CCN(c1ccccc1)S(=O)(=O)c1ccc(OC)c(NC(=O)CNCC(C)O)c1 (stereo not given)	inconclusive: -19.8%	–
O=C(Cc1ccccc1)NCC1OCCc2ccccc21 (stereo not given)	inconclusive: 7.4% [at 46 µM]	–
CC(C)c1nnc(SCC(=O)N2CCN(C(=O)c3ccco3)CC2)n1N	inconclusive: 3.16% [at 46 µM]	–
CC(=O)Nc1c([N+](=O)[O-])cc(C)c(Cl)c1[N+](=O)[O-]	inconclusive: -20.6% [at 46 µM]	–
CCN(CC(=O)Nc1ccccc1Br)Cc1nc2ccccc2c(=O)[nH]1	inactive: 8.81%	–
Cc1ccc(C2CCN(C(=O)Nc3ccccc3)C2)cc1 (stereo not given)	inconclusive: 12.2%	–
O=C(Nc1ccc(OC(F)(F)F)cc1)c1ccc(S(=O)(=O)N2CCOCC2)o1	inconclusive: 15.8% [at 46 µM]	–
CSc1ccc(/C=C/C(=O)OCC(=O)N(C)CCC#N)cc1	inconclusive: -2.65% [at 46 µM]	–
c1ccc(Cn2nnc3c(N4CCCCCC4)ncnc32)cc1	–	inconclusive: 35.5 µM [falling, single point]
O=C(COC(=O)c1ccc(NS(=O)(=O)c2ccc3c(c2)OCCO3)cc1)NCC1CCCO1 (stereo not given)	inactive: 2.12%	–
Cc1cc2c(cc1NS(=O)(=O)c1ccc(F)cc1)n(C)c(=O)c(=O)n2C	inactive: 3.36% [at 46 µM]	–
COc1ccccc1CCn1c(=O)c(-c2cccc(Cl)c2)nc2cncnc21	inconclusive: -16.8%	–
Cc1ccc(OCCOCCn2cnc3ccccc3c2=O)cc1C	inactive: -1.46% [at 46 µM]	–
Cc1cccc(N2CCN(CCCNc3ncnc4onc(-c5ccc(Cl)cc5)c34)CC2C)c1 (stereo not given)	inconclusive: -34.6% [at 46 µM]	–

In a second layout: entries from further up

| SMILES | ratio change, negative = inhibition | Potency |
| --- | --- | --- |
| CC(=O)Nc1c([N+](=O)[O-])cc(C)c(Cl)c1[N+](=O)[O-] | inconclusive: -20.6% [at 46 µM] | – |
| CCN(CC(=O)Nc1ccccc1Br)Cc1nc2ccccc2c(=O)[nH]1 | inactive: 8.81% | – |

(list continues)

SMILES	ratio change, negative = inhibition	Potency
Fc1ccccc1N1CCN(C(c2cccs2)c2nnnn2CCc2ccccc2)CC1 (stereo not given)	inconclusive: -6.63%	–
CCOc1ccccc1CNC(=O)C1CCN(C(=O)N2CC(CC)Oc3ccc(C)cc32)CC1 (stereo not given)	inactive: 2.82% [at 46 µM]	–
COc1ccc(N2CC(NC(=O)/C=C\c3ccccc3)CC2=O)cc1 (stereo not given)	inactive: -2.13% [at 46 µM]	–
CCn1c(C)c(CCC(=O)O)c(=O)n2nc(-c3ccccc3OC)cc12	inactive: 0.0498%	–
CCCc1cnc2c(c1SCC(=O)N1CCC(C)CC1)c(=O)n(C)c(=O)n2C	inactive: -4.94% [at 46 µM]	–
CCc1nnc(NC(=O)C2CCN(c3cnccn3)CC2)s1	inactive: -4.99%	–
O=C(Nc1cccc(NC(=O)c2cccs2)c1)c1ccc2c(c1)OCO2	–	inconclusive: 17.8 µM [inhibitor, single point]
CCOc1ccc(Oc2c(/C=N/NC(=O)COc3ccccc3OC)c(C)nn2-c2ccccc2)cc1	inconclusive: -42.6%	–
COCCSc1nnc(NS(=O)(=O)c2ccccc2)s1	inconclusive: 14.4% [at 46 µM]	–
CCNc1ncc2ncc(=O)n(Cc3cccc(OC)c3)c2n1	inconclusive: -6.03%	–
O=C(CNC(=O)c1ccco1)OCC(=O)c1ccccc1Cl	inconclusive: -16.7% [at 46 µM]	–
COc1ccccc1N1CCN(c2ccc([N+](=O)[O-])cc2Cl)CC1	–	inconclusive: 3.16 µM [falling, full curve]
c1coc(-c2nc3ccccc3nc2-c2ccco2)c1	inactive: -8.86%	–
COCCCNC(=O)CCC(=O)N1Cc2cccc(OC)c2Oc2ncccc21	inactive: 16.1% [at 46 µM]	–
Cc1ccccc1OCCSc1nc2ccc(NC(=O)c3ccccc3)cc2s1	inactive: 9.31% [at 46 µM]	–
COc1ccc(COc2cc(-c3cccc(OC)c3)nc3ccc(NC(=O)c4ccc(Cl)cc4)cc23)cc1	inconclusive: -34.4%	–
O=C(N/N=C/c1ccccc1OC(=O)c1ccc2c(c1)OCO2)c1cccc(F)c1	–	inconclusive: 12.6 µM [falling, single point]
COc1ccc(Cn2ccn(Cc3cccc(C)c3)c(=O)c2=O)cc1	inactive: 6.03% [at 46 µM]	–
COc1ccc(OC)c(NS(=O)(=O)c2ccc3c(c2)CCC(=O)N3)c1	inactive: 8.14%	–
O=C(C1CCN(c2ncnc3c2nc2n3CCCCC2)CC1)N1CCN(c2cccc(Cl)c2)CC1	inconclusive: -22.5% [at 46 µM]	–
Cc1ccccc1NC(=S)N(CCN1CCOCC1)Cc1ccccc1F	inconclusive: 9.54% [at 9.22 µM]	–
c1ccc(-c2csc(N3CCSCC3)n2)cc1	inconclusive: -5.13% [at 46 µM]	–
CCOc1ccc(NCc2cc3c(C(C)(C)C)nn(-c4ccccc4)c3[nH]c2=O)cc1	inactive: 8.72%	–
O=C(NCC(c1ccc2c(c1)OCO2)N1CCOCC1)c1cccc(Cl)c1 (stereo not given)	inconclusive: -8.67% [at 46 µM]	–
CCCCCn1c(=O)c(-c2nc3ccccc3[nH]2)c(O)c2ccccc21	inconclusive: 43.5% [at 46 µM]	–
CSc1nnc(C)c(=O)n1COC(=O)/C=C/c1ccc2c(c1)OCO2	inconclusive: 10.5% [at 9.22 µM]	–
O=C(Nc1cc(C(F)(F)F)ccc1Cl)c1nc2ccccc2nc1N1CCCCC1	inconclusive: -10.8% [at 46 µM]	–

In another format: four of the compounds above
SMILES | ratio change, negative = inhibition | Potency
CN1CCCN(S(=O)(=O)c2ccc(Cl)c(Cl)c2)CC1 | inconclusive: -10.9% [at 46 µM] | –
Fc1ccccc1N1CCN(C(c2cccs2)c2nnnn2CCc2ccccc2)CC1 (stereo not given) | inconclusive: -6.63% | –
O=C(CNC(=O)c1ccco1)OCC(=O)c1ccccc1Cl | inconclusive: -16.7% [at 46 µM] | –
CCOc1ccc(NCc2cc3c(C(C)(C)C)nn(-c4ccccc4)c3[nH]c2=O)cc1 | inactive: 8.72% | –

Next part

SMILES	ratio change, negative = inhibition	Potency
COc1cc(CNc2ccc3c(c2)OCCO3)ccc1OCC(N)=O	inactive: 8.88% [at 46 µM]	–
O=C(Cn1c(=O)nc(-c2ccccc2)c2ccccc21)NCc1ccc(Cl)cc1	–	inconclusive: 14.1 µM [inhibitor, partial curve, poor fit]
COc1c(F)c(F)c(C(=O)Nc2ccc(-c3nc4ccccc4[nH]3)cc2)c(F)c1F	inconclusive: 0.402% [at 46 µM]	–
O=C(N/N=C/c1ccccn1)c1cccs1	inactive: -5.72% [at 46 µM]	–
Cc1ccc(N=C2NC(=O)/C(=C/c3cccs3)S2)cc1C	inconclusive: 28.8%	–
CCCOC(=O)CSC1=C(C#N)C(c2ccccc2Cl)CC(=O)N1 (stereo not given)	–	inconclusive: 35.5 µM [falling, single point]
FC(F)(F)C(Cl)Br (stereo not given)	inactive: -10.9%	–
Cc1ccc(NC(=O)CC2SC3=NCCN3C2=O)cc1 (stereo not given)	inactive: -1.81%	–
O=C(CN(c1ccc(F)cc1)S(=O)(=O)c1ccc2c(c1)OCCO2)NCC1CCCO1 (stereo not given)	inconclusive: 15.7%	–
O=C(NCCc1ccncc1)Nc1ccccc1	inactive: -5.71%	–
O=C(Nc1cccc(C(F)(F)F)c1)OCCN1CCN(Cc2ccccc2)CCC1=O	–	inconclusive: 35.5 µM [fluorescent, single point]
Cc1ccc(C(=O)c2ccc(CC(=O)O)n2C)cc1	inconclusive: -12.5%	–
Cc1nn(CC2CC2)c(=O)n1-c1cccc(Cl)c1	inconclusive: 9.46% [at 46 µM]	–
O=C(Nc1ccccn1)C1CCN(S(=O)(=O)c2cccc3nonc23)CC1	inactive: -0.644%	–
CCOC(=O)N1CCC(NC(=O)CS(=O)(=O)Cc2nc(-c3ccccc3C)oc2C)CC1	–	inconclusive: 35.5 µM [fluorescent, single point]
O=C(NC1CCCCCCC1)c1ccccc1-c1ccccc1	–	inconclusive: 35.5 µM [fluorescent, single point]
OC(COC(c1ccccc1)c1ccccc1)CN1CCN(c2ccccn2)CC1 (stereo not given)	–	inconclusive: 22.4 µM [fluorescent, single point]
O=C(c1cc(Sc2ccc(Cl)cc2)nc2ccccc12)N1CCN(c2ccccn2)CC1	inconclusive: -45.9% [at 46 µM]	–
COc1cc(/C=C2\SC(=O)N(Cc3ccc(Cl)cc3)C2=O)cc([N+](=O)[O-])c1O	inconclusive: -20.3% [at 9.22 µM]	–
CN1/C(=C\P(=O)(N(C)C)N(C)C)C(C)(C)c2ccccc21	–	inconclusive: 14.1 µM [falling, single point]
COc1ccccc1-c1nc(C#N)c(N2CCC(Cc3ccccc3)CC2)o1	–	inconclusive: 11.2 µM [falling, partial curve]
Cc1cccc(C(=O)Nc2cccc(OCc3cc(=O)n4cccc(C)c4n3)c2)c1	inconclusive: -2.9% [at 46 µM]	–
COc1ccc(Nc2cc(C(=O)N3CCc4ccccc4C3)c3ccccc3n2)c(OC)c1	–	inconclusive: 12.6 µM [inhibitor, partial curve, poor fit]
COc1ccc(C(NC(=O)/C=C\c2ccco2)c2ccc(OC)c(OC)c2)cc1 (stereo not given)	inactive: 8.18%	–
O=C(CNC(=O)C1CCCCC1)Nc1ccc(F)c(Cl)c1	inconclusive: 3.05% [at 46 µM]	–
Cc1noc(C)c1COc1cccc(C(=O)N2CCN(C/C=C/c3ccccc3)CC2)c1	–	inconclusive: 35.5 µM [falling, single point]
